# Experimental data published in PubChem BioAssay AID493014 (National Center for Advancing Translational Sciences (NCATS), 2011).
# Some of the results follow. Shown are side measurements of this screen, not its main read-out; they come without a call. Compounds called inactive in the main read-out are mostly missing here. Words in brackets tell the shape of the fitted curve; partial curves, single points and poor fits give uncertain potencies.
# Test: qHTS Assay to Find Inhibitors of Chronic Active B-Cell Receptor Signaling
# Settings: ABC-DLBCL IkBa-CBG/CBR reporter, luminescence ratio (green luciferase fused to IkBa over red control in TMD8 lymphoma cells), 4 h
# Procedure, shortened: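 Compounds up to 46 uM were incubated four hours with TMD8 cells whose green CBG68 luciferase is fused to IkappaBalpha; red CBR luminescence normalised the signal, and concentration-effect curves were fitted to fusion, red and ratio data.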
# [1] = measured here: CBR red luminescence, cell number
# [2] = measured here: IkBa-CBG green luminescence
Compound,AC50 [1],AC50 [2]
NS(=O)(=O)c1ccc(CNC(=O)c2cc(=O)c3ccccc3o2)cc1,"35.5 µM [rising, single point]",
CCN(CC)c1ccc(/C=N/NC(=O)c2cc3ccccc3[nH]2)cc1,"11.2 µM [falling, partial curve]",
CC(=O)N1CCC(N(C(=O)Nc2ccc(F)cc2)C2CCCC2)CC1,"1.64 µM [falling, partial curve, poor fit]",
Cn1c(SCc2ccc(C#N)cc2Cl)nc2ccccc21,"2.82 µM [rising, full curve, poor fit]",
C[C@@]12C(=O)N(Cc3ccc(Cl)cc3)CC(=O)N1[C@H]1c3ccccc3OC[C@@H]1[C@@H]2c1ccccc1,"16.4 µM [falling, single point]","9.2 µM [rising, partial curve, poor fit]"
CSc1ccc(S(=O)(=O)NCC(=O)OCC(=O)N2CCC(C)CC2)cc1[N+](=O)[O-],"20.6 µM [rising, partial curve, poor fit]",
C=CCc1ccc(OCc2ccc(C(=O)OC)o2)c(OC)c1,"13 µM [falling, partial curve, poor fit]",
O=C(NC(=S)NC1CCCc2ccccc21)c1ccc(F)cc1 (stereo unspecified),"11.2 µM [rising, partial curve, poor fit]",
Brc1ccsc1-c1csc(-c2ccncc2)n1,"1 µM [rising, partial curve, poor fit]",
O=C(N/N=C/C=C/c1ccco1)c1cccs1,"5.01 µM [falling, partial curve]",
CC(C)c1ccc(NC(=O)CCNC(=O)Cn2cnc3ccccc3c2=O)cc1,"7.08 µM [rising, partial curve]",
CC(=O)Nc1cccc(C(=O)Nc2nc(C)cs2)c1,"7.94 µM [falling, partial curve, poor fit]",
Cc1cccc(NC(=O)NCc2ccc3[nH]c(C)cc3c2)c1,"14.1 µM [falling, single point]",
O=C(O)c1cc2c(cc1NC(=O)c1c(F)cccc1F)OCCCO2,"14.1 µM [falling, partial curve]",
Cc1onc(-c2ccccc2)c1C(=O)NC(=S)NNC(=O)c1ccccc1O,"29.1 µM [falling, single point]","29.1 µM [falling, single point]"
CCC(=O)NC(=S)Nc1ccc(NC(=S)NC(=O)c2ccccc2)cc1,"6.31 µM [falling, partial curve]",
O=C(O)Cn1c(O)c(C=Nc2ccccc2)sc1=S,"6.51 µM [falling, single point]",
C=CCC[C@@H](Cc1ccc(F)cc1)C(=O)OC[C@@H](NC(=O)[C@H](CC=C)CC(=O)NCCO)C(C)(C)C,"20.6 µM [falling, partial curve]",
O=C(Nc1ccc(N2CCOCC2)c(Cl)c1)c1ccc(Cl)cc1,"3.98 µM [rising, partial curve, poor fit]",
COC(=O)c1ccc(COc2ccc(C)c(C)c2)o1,"6.31 µM [rising, single point]",
CC1(C)Cc2nc3sc4c(N5CCCC5)nnnc4c3cc2CO1,"14.1 µM [rising, single point]",

# As a working copy, part of the list above:
Compound,AC50 [1],AC50 [2]
O=C(N/N=C/C=C/c1ccco1)c1cccs1,"5.01 µM [falling, partial curve]",
CC(C)c1ccc(NC(=O)CCNC(=O)Cn2cnc3ccccc3c2=O)cc1,"7.08 µM [rising, partial curve]",

# (continued)

Compound,AC50 [1],AC50 [2]
CN1CCN(Cc2cc(COCc3ccccc3)c3cccnc3c2O)CC1,"2.82 µM [rising, partial curve, poor fit]","1.41 µM [falling, partial curve, poor fit]"
CC1CCN(c2cc(=O)n(C3CCCCC3)c(=O)[nH]2)CC1,"0.291 µM [rising, full curve, poor fit]",
O=C(NC(=S)NCc1cccnc1)c1ccccc1,"23.1 µM [rising, partial curve, poor fit]",
O=C(CCN1C(=O)CSc2ccccc21)Nc1cccc(C(F)(F)F)c1,"0.92 µM [rising, full curve, poor fit]",
CCOc1ccc2ccccc2c1C(=O)N1CCOCC1,"13 µM [rising, partial curve]",
CC(=O)c1ccc(NC(=O)NC2CCCc3ccccc32)cc1 (stereo unspecified),"5.62 µM [falling, partial curve, poor fit]",
O=C(CSc1nccn(-c2ccc(F)c(Cl)c2)c1=O)NC1CCCC1,"7.31 µM [falling, partial curve, poor fit]",
O=C(COC(=O)/C=C/c1ccco1)NCc1ccccc1,"7.08 µM [rising, full curve, poor fit]",
C=CCOC(=O)C1=C[C@@H](c2ccc3c(c2)OCO3)C[C@@H](OCc2ccc(CO)cc2)O1,"11.2 µM [rising, partial curve, poor fit]",
CCOc1ccccc1NC(=O)NC1(C(=O)N2CCOCC2)CCCCC1,"14.1 µM [rising, partial curve, poor fit]",
O=C(Nc1ncc(Cc2ccccc2)s1)C1CCCO1 (stereo unspecified),"32.6 µM [falling, single point]",
Clc1ccccc1/C=C/c1nc(-c2ccccn2)no1,"7.08 µM [falling, partial curve, poor fit]",
COc1ccccc1-c1cc(C(=O)NCc2ccccc2)c2c(-c3ccc(C)cc3)[nH]nc2n1,"0.501 µM [falling, full curve, poor fit]",
Cc1ccc2nc(-c3ccncc3)[nH]c2c1,"8.91 µM [falling, partial curve, poor fit]",
Cc1cc(C)c(NN=c2c(=O)c3ccccc3c2=O)c(C)c1,"0.82 µM [rising, full curve]",
COc1cc2c(cc1OC)C(=O)N1[C@H]3c4cc(C)ccc4OC[C@@H]3[C@H](c3ccccc3)[C@]1(C)C(=O)N2,"32.6 µM [falling, partial curve, poor fit]",
COc1ccccc1/C=C1\SC(=S)N(CCC(=O)Nc2cccc(O)c2)C1=O,"11.2 µM [falling, partial curve]",
C[C@@H](C(=O)NCCc1c[nH]c2ccccc12)[C@H]1C[C@]1(C)[C@H](NC(=O)OCc1ccccc1)c1ccccc1,"23.1 µM [falling, single point]",
CC(NC(=O)CSc1nnc(-c2cccnc2)n1N)c1ccccc1 (stereo unspecified),"5.62 µM [rising, single point]",
CN(CCC1CCOCC1)C(=O)CC1C(=O)NCCN1Cc1ccoc1 (stereo unspecified),"35.5 µM [rising, single point]",
CC(=O)N(C)c1ccc(NC(=O)Nc2ccc(C)cc2)cc1,"20 µM [rising, single point]",

Compound,AC50 [1],AC50 [2]
Cc1nnnn1/C(=C\c1ccccc1)C(=O)OCC(=O)Nc1cccc(S(=O)(=O)N(C)C)c1,"2.31 µM [falling, full curve]",
COc1cccc(CNc2ccc3[nH]c(=O)[nH]c3c2)c1OCc1ccccc1,"11.2 µM [falling, partial curve]",
Brc1cc(Br)c(Oc2cc(Br)c(Br)cc2Br)cc1Br,"6.51 µM [falling, single point]",
Cn1c(CO)cnc1SCc1ccc(Cl)cc1,"3.98 µM [falling, partial curve]",
O=C(COC(=O)[C@H](Cc1ccccc1)NC(=O)c1cccs1)Nc1cc(F)ccc1F,"1.84 µM [rising, partial curve]",
O=C(COCc1cc(-c2ccc(F)cc2)on1)Nc1cc(F)ccc1F,"35.5 µM [falling, single point]",
C/C(=N\NC(=O)COc1cc(C)cc(C)c1)c1ccc(N2CCOCC2)cc1,"29.1 µM [falling, single point]",
Cc1nc(CSc2ccc(Cl)cc2)cs1,"7.08 µM [rising, partial curve]",
O=C(Nc1cccc(F)c1)c1ccc(Br)o1,,"18.4 µM [rising, partial curve, poor fit]"
COc1ccc(NC2CCCN(C(=O)CN3CCOC3=O)C2)cc1OC (stereo unspecified),"25.1 µM [falling, partial curve, poor fit]",
Cc1ccccc1Nc1nc(N)nc(COC(=O)c2cccc(S(=O)(=O)NCc3ccccc3)c2)n1,"23.1 µM [falling, single point]",
COc1ccccc1/C=C/C=N/NC(=O)c1cc(-c2ccco2)[nH]n1,"8.91 µM [falling, partial curve]",
O=[N+]([O-])c1ccc(-c2nnc(-c3ccccc3)c(N3CCOCC3)n2)cc1,"18.4 µM [falling, partial curve]",
CCC(CC)C1C(C#N)=C(N)SC(N)=C1C#N,"29.1 µM [falling, single point]",
CCOC(=O)c1c(C)c(C(=O)NCC2CCCO2)c(C)n1C (stereo unspecified),"0.517 µM [falling, partial curve, poor fit]",
Cc1csc(=O)n1CC(=O)OC(C)C(=O)Nc1cccc(Cl)c1 (stereo unspecified),"25.9 µM [rising, single point]",
Cc1nc(CN(C)C(=O)c2cc(COc3c(F)cccc3F)on2)cs1,"35.5 µM [falling, single point]",
COc1cc2c(cc1OC)C(c1ccccc1)CC2=O (stereo unspecified),"12.6 µM [rising, single point]",
CCc1ccc(NC(=O)c2sc3nc4n(c(=O)c3c2C)CCC4)cc1,"11.2 µM [rising, partial curve, poor fit]",
O=C(C1CCN(S(=O)(=O)c2cccc3nsnc23)CC1)N1CCn2c1nc1ccccc12,"0.1 µM [rising, full curve, poor fit]",
CCCCc1nnc(NC(=O)c2oc3ccccc3c2C)s1,"0.461 µM [rising, partial curve]",
